PubChem BioAssay AID1259254 | NCATS – 2017

Screen: 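Genome-wide screen for genes that prevent DNA re-replication in cancer cells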 (primary screen)
Cells: human HCT116 colorectal cancer cells
Reagents: single siRNA against human genes
Time to read-out: 3 days
Measurement: 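Imaged Hoechst DNA stain sorts each cell into a cycle phase by DNA amount; per plate, G2 fraction set to 0% for non-targeting and 100% for GMNN siRNA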
Reading the numbers: G2 robust z-score and G2 cells, % of GMNN control: higher = more G2 cells, more excess DNA replication; raw share of cells in G2: higher = larger share of cells with G2 DNA content
Rule for the call: 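An siRNA counts as active if its G2 robust z-score lies at least 5 MADs above the screen median; here such calls match roughly 38% of GMNN control or more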
This is an unselected part of about 59,000 reagents tested. Over the whole deposit, about 1,550 (2.6%) were called active. 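G2 share is only a proxy for re-replication; each gene was hit by three separate siRNAs, and active genes were retested.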 The raw values are shown without normalisation. The numbers tell different reagents against one gene apart. Not given: the amount of reagent.

G2 robust z-score	G2 cells, % of GMNN control	raw share of cells in G2 (%)	Call	gene symbol	siRNA no.
1.32	12.3	7.13	inactive	RNF25 (ring finger protein 25)	1
1.07	10.5	10.6	inactive	RNF25 (ring finger protein 25)	2
-0.928	-3.56	2.51	inactive	RNF25 (ring finger protein 25)	3
-0.0138	2.87	5.24	inactive	FCHO2 (FCH and mu domain containing endocytic adaptor 2)	1
-1.22	-5.65	1.65	inactive	FCHO2 (FCH and mu domain containing endocytic adaptor 2)	2
-0.998	-4.05	0.634	inactive	FCHO2 (FCH and mu domain containing endocytic adaptor 2)	3
0.223	4.54	5.65	inactive	RBBP6 (RB binding protein 6, ubiquitin ligase)	1
1.1	10.7	8.67	inactive	RBBP6 (RB binding protein 6, ubiquitin ligase)	2
-0.446	-0.17	4.61	inactive	RBBP6 (RB binding protein 6, ubiquitin ligase)	3
-0.919	-3.5	2.6	inactive	SLX9 (SLX9 ribosome biogenesis factor)	1
-0.758	-2.37	2.26	inactive	SLX9 (SLX9 ribosome biogenesis factor)	2
0.0597	3.39	4	inactive	SLX9 (SLX9 ribosome biogenesis factor)	3
-0.838	-2.93	2.84	inactive	CHMP4C (charged multivesicular body protein 4C)	1
-0.265	1.1	3.35	inactive	CHMP4C (charged multivesicular body protein 4C)	2
-0.789	-2.59	2.1	inactive	CHMP4C (charged multivesicular body protein 4C)	3
0.597	7.17	7.61	inactive	CSTB (cystatin B)	1
-0.804	-2.69	4	inactive	CSTB (cystatin B)	2
-0.384	0.267	4.19	inactive	CSTB (cystatin B)	3
-1.13	-4.96	3.97	inactive	CLK3 (CDC like kinase 3)	1
-0.543	-0.855	5.12	inactive	CLK3 (CDC like kinase 3)	2
-0.844	-2.97	2.98	inactive	CLK3 (CDC like kinase 3)	3
0.551	6.85	5.8	inactive	AP1M2 (adaptor related protein complex 1 subunit mu 2)	1
-1.06	-4.49	3.99	inactive	AP1M2 (adaptor related protein complex 1 subunit mu 2)	2
3.05	24.4	13.6	inactive	AP1M2 (adaptor related protein complex 1 subunit mu 2)	3
0.757	8.3	8.81	inactive	SLBP (stem-loop histone mRNA binding protein)	1
-0.0973	2.28	4.8	inactive	SLBP (stem-loop histone mRNA binding protein)	2
1.51	13.6	8.15	inactive	SLBP (stem-loop histone mRNA binding protein)	3
-0.282	0.984	4.55	inactive	RINL (Ras and Rab interactor like)	1
-1.27	-5.97	1.21	inactive	RINL (Ras and Rab interactor like)	2
1.15	11.1	6.59	inactive	RINL (Ras and Rab interactor like)	3
0.399	5.77	5.75	inactive	MICA (MHC class I polypeptide-related sequence A)	1
-0.734	-2.19	3.82	inactive	MICA (MHC class I polypeptide-related sequence A)	2
-0.23	1.35	3.6	inactive	MICA (MHC class I polypeptide-related sequence A)	3
-0.0596	2.55	7.11	inactive	DCXR (dicarbonyl and L-xylulose reductase)	1
-0.726	-2.14	3.45	inactive	DCXR (dicarbonyl and L-xylulose reductase)	2
-1.25	-5.8	1.58	inactive	DCXR (dicarbonyl and L-xylulose reductase)	3
0.65	7.54	7.48	inactive	ZCCHC8 (zinc finger CCHC-type containing 8)	1
0.179	4.23	5.95	inactive	ZCCHC8 (zinc finger CCHC-type containing 8)	2
1.33	12.4	11.8	inactive	ZCCHC8 (zinc finger CCHC-type containing 8)	3
-0.43	-0.0589	3.58	inactive	DENND2C (DENN domain containing 2C)	1
0.0288	3.17	4.02	inactive	DENND2C (DENN domain containing 2C)	2
-0.525	-0.723	2.53	inactive	DENND2C (DENN domain containing 2C)	3
0.627	7.38	8.71	inactive	IMMP2L (inner mitochondrial membrane peptidase subunit 2)	1
0.925	9.47	7.59	inactive	IMMP2L (inner mitochondrial membrane peptidase subunit 2)	2
3.39	26.8	14.2	inactive	IMMP2L (inner mitochondrial membrane peptidase subunit 2)	3
-1.03	-4.3	3.5	inactive	POMC (proopiomelanocortin)	1
-0.636	-1.51	3.64	inactive	POMC (proopiomelanocortin)	2
-0.352	0.49	4.87	inactive	POMC (proopiomelanocortin)	3
6.5	48.7	21.7	active	TDO2 (tryptophan 2,3-dioxygenase)	1
0.279	4.93	5.78	inactive	TDO2 (tryptophan 2,3-dioxygenase)	2
1.41	12.9	9.6	inactive	TDO2 (tryptophan 2,3-dioxygenase)	3
-0.295	0.89	4.29	inactive	SATL1 (spermidine/spermine N1-acetyl transferase like 1)	1
2.85	23	13.3	inactive	SATL1 (spermidine/spermine N1-acetyl transferase like 1)	2
0.379	5.64	6.46	inactive	SATL1 (spermidine/spermine N1-acetyl transferase like 1)	3
0.0945	3.63	6.24	inactive	DBNDD1 (dysbindin domain containing 1)	1
1.04	10.3	5.41	inactive	DBNDD1 (dysbindin domain containing 1)	2
0.529	6.69	7.49	inactive	DBNDD1 (dysbindin domain containing 1)	3
0.126	3.85	6.84	inactive	NEMF (nuclear export mediator factor)	1
1.33	12.3	8.78	inactive	NEMF (nuclear export mediator factor)	2
0.915	9.41	6.67	inactive	NEMF (nuclear export mediator factor)	3
-0.95	-3.71	1.81	inactive	FEZF1 (FEZ family zinc finger 1)	1
0.277	4.92	4.87	inactive	FEZF1 (FEZ family zinc finger 1)	2
-0.468	-0.327	3.41	inactive	FEZF1 (FEZ family zinc finger 1)	3
1.86	16.1	11	inactive	UGGT2 (UDP-glucose glycoprotein glucosyltransferase 2)	1
0.171	4.17	5.93	inactive	UGGT2 (UDP-glucose glycoprotein glucosyltransferase 2)	2
-0.544	-0.86	6.05	inactive	UGGT2 (UDP-glucose glycoprotein glucosyltransferase 2)	3
-0.55	-0.904	3.28	inactive	LINC01600 (long independently transcribed non-coding RNA 1600)	1
-0.503	-0.569	2.77	inactive	LINC01600 (long independently transcribed non-coding RNA 1600)	2
1.54	13.8	7.13	inactive	LINC01600 (long independently transcribed non-coding RNA 1600)	3

Records listed so far whose gene name begins with S or s (9):
G2 robust z-score	G2 cells, % of GMNN control	raw share of cells in G2 (%)	Call	gene symbol	siRNA no.
-0.919	-3.5	2.6	inactive	SLX9 (SLX9 ribosome biogenesis factor)	1
-0.758	-2.37	2.26	inactive	SLX9 (SLX9 ribosome biogenesis factor)	2
0.0597	3.39	4	inactive	SLX9 (SLX9 ribosome biogenesis factor)	3
0.757	8.3	8.81	inactive	SLBP (stem-loop histone mRNA binding protein)	1
-0.0973	2.28	4.8	inactive	SLBP (stem-loop histone mRNA binding protein)	2
1.51	13.6	8.15	inactive	SLBP (stem-loop histone mRNA binding protein)	3
-0.295	0.89	4.29	inactive	SATL1 (spermidine/spermine N1-acetyl transferase like 1)	1
2.85	23	13.3	inactive	SATL1 (spermidine/spermine N1-acetyl transferase like 1)	2
0.379	5.64	6.46	inactive	SATL1 (spermidine/spermine N1-acetyl transferase like 1)	3
